Patent US20040115733A1
Results are given in words; binding and its absence hold for the method and conditions named. Binding seen in cells or lysates may run through a third protein. Some entries that bind do so weakly or less than the wild type. Blank lines part the entries; values can stand above or below the binder they belong to.

Assays:
[1] = target: T1, prohibitin, endogenously expressed in HeLa cells (human (HeLa cells)) (UniProt P35232); experiment: co-immunoprecipitation, SDS-PAGE (legend of FIG. 3)
T1 sequence: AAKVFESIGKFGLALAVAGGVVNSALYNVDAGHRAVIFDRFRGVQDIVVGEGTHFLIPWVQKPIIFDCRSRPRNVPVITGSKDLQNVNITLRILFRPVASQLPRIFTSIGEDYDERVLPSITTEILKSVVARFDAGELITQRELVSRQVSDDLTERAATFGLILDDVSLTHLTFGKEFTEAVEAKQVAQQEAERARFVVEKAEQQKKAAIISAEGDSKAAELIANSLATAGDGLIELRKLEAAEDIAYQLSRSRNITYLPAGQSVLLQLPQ

[2] = target: T1, prohibitin, endogenously expressed in HeLa cells (human (HeLa cells)); experiment: co-immunoprecipitation from HeLa lysates (description of FIG. 3)
[3] = target: T1, prohibitin, endogenously expressed in HeLa cells (human (HeLa cells)); experiment: co-immunoprecipitation from HeLa lysates with anti-prohibitin mAb, anti-ShcA-SH2 immunoblot; visible increase upon H2O2 treatment

- binding [1]: binds
- binding [2]: binds
- binding [3]: binds
B1: p52^ShcA, endogenously expressed in HeLa cells (protein, human (HeLa cells), UniProt P29353-2 1-473, looked up)
chain: MNKLSGGGGRRTRVEGGQLGGEEWTRHGSFVNKPTRGWLHPNDKVMGPGVSYLVRYMGCVEVLQSMRALDFNTRTQVTREAISLVCEAVPGAKGATRRRKPCSRPLSSILGRSNLKFAGMPITLTVSTSSLNLMAADCKQIIANHHMQSISFASGGDPDTAEYVAYVAKDPVNQRACHILECPEGLAQDVISTIGQAFELRFKQYLRNPPKLVTPHDRMAGFDGSAWDEEEEEPPDHQYYNDFPGKEPPLGGVVDMRLREGAAPGAARPTAPNAQTPSHLGATLPVGQPVGGDPEVRKQMPPPPPCPGRELFDDPSYVNVQNLDKARQAVGGAGPPNPAINGSAPRDLFDMKPFEDALRVPPPPQSVSMAEQLRGEPWFHGKLSRREAEALLQLNGDFLVRESTTTPGQYVLTGLQSGQPKHLLLVDPEGVVRTKDHRFESVSHLISYHMDNHLPIISAGSELCLQQPVERKL

- binding [1]: binds
- binding [2]: binds
- binding [3]: binds
B2: p46^ShcA, endogenously expressed in HeLa cells (protein, human (HeLa cells), UniProt P29353-3 1-428, looked up)
chain: MGPGVSYLVRYMGCVEVLQSMRALDFNTRTQVTREAISLVCEAVPGAKGATRRRKPCSRPLSSILGRSNLKFAGMPITLTVSTSSLNLMAADCKQIIANHHMQSISFASGGDPDTAEYVAYVAKDPVNQRACHILECPEGLAQDVISTIGQAFELRFKQYLRNPPKLVTPHDRMAGFDGSAWDEEEEEPPDHQYYNDFPGKEPPLGGVVDMRLREGAAPGAARPTAPNAQTPSHLGATLPVGQPVGGDPEVRKQMPPPPPCPGRELFDDPSYVNVQNLDKARQAVGGAGPPNPAINGSAPRDLFDMKPFEDALRVPPPPQSVSMAEQLRGEPWFHGKLSRREAEALLQLNGDFLVRESTTTPGQYVLTGLQSGQPKHLLLVDPEGVVRTKDHRFESVSHLISYHMDNHLPIISAGSELCLQQPVERKL
